The list does not hold the whole screen: it gathers tests that were run many times, whatever their T/C, doses with no T/C, and many T/C values between a quarter and a half above the control. Other doses and runs of a compound stand elsewhere. T/C is the treated group as % of the vehicle group. Some entries give survivors of the animals treated and no T/C: the source holds a T/C of zero for them, seemingly a mark for toxic or unscored doses. Some doses without a T/C left all or most animals alive at the check, yet need not have been tolerated: survival well below the control is almost never listed, so the zero probably covers shortened survival too. Survivors were counted at the toxicity check, usually on the fifth day, unless a day is given; later deaths do not show. Schedule codes are those of the source, read here as Q, the interval in days (D) or hours (H), X, the number of doses. Some entries hold several experiments; their values stand side by side, smallest first. Counts like (3×) stand for listed records that agree. Where survival is the endpoint, this PubChem deposit counts one and a half times the control or more as active, and values a quarter to a half above the control carry no call in these data; other NCI protocols may use other cut-offs. Some T/C values carry the count of animals alive at the toxicity check (mostly the fifth day); where none is given, no animal had died by that day.
System: BDF1 mice, P388 leukemia ip, median survival T/C
Experiment: NCI In Vivo Anticancer Drug Screen. Data for tumor model P388 Leukemia (intraperitoneal) in B6D2F1 (BDF1) mice
Conditions: T/C endpoint: median survival time, higher T/C = longer survival
Procedure, shortened: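 Mice carrying the transplantable tumour receive compound or vehicle. Survival is followed in each arm, and the treated measure is divided by the vehicle measure.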

[1] = dose: 400.0 mg/kg/injection, schedule: Q01DX009 (ip), vehicle: saline
[2] = dose: 50.0 mg/kg/injection, schedule: Q04DX003 (ip), vehicle: saline
[3] = dose: 200.0 mg/kg/injection, schedule: Q01DX009 (ip), vehicle: saline
[4] = dose: 200.0 mg/kg/injection, schedule: Q04DX003 (ip), vehicle: saline with Tween-80
[5] = dose: 400.0 mg/kg/injection, schedule: Q04DX003 (ip), vehicle: saline with Tween-80
[6] = dose: 100.0 mg/kg/injection, schedule: Q01DX009 (ip), vehicle: saline with Tween-80
[7] = dose: 200.0 mg/kg/injection, schedule: Q01DX009 (ip), vehicle: saline with Tween-80
[8] = dose: 100.0 mg/kg/injection, schedule: Q01DX009 (ip), vehicle: Klucel (hydroxypropylcellulose) (HPC)
[9] = dose: 400.0 mg/kg/injection, schedule: Q01DX009 (ip), vehicle: water
[10] = dose: 100.0 mg/kg/injection, schedule: Q01DX009 (ip), vehicle: saline

C=CCOCC1CO1 (configuration not stated)
survivor count [1]: 2 of 5

Cc1ccc(C(=O)C[S+](C)C)c(C)c1
survivor count (dose: 115.0 mg/kg/injection, schedule: Q01DX009 (ip), vehicle: saline): 0 of 6
survivor count (dose: 170.0 mg/kg/injection, schedule: Q01DX009 (ip), vehicle: saline): 0 of 6
survivor count (dose: 225.0 mg/kg/injection, schedule: Q04DX003 (ip), vehicle: saline): 0 of 6

O=[N+]([O-])c1ccc(/C=N/c2nccs2)o1
T/C [2]: 132 % of control

CN(C)CCCNc1ccc(O)c2c1C(=O)c1ccccc1C2=O
T/C (dose: 50.0 mg/kg/injection, schedule: Q01DX009 (ip), vehicle: saline, evaluated on day 20): 106 [5 of 6 alive], 121, 125 % of control
T/C (dose: 50.0 mg/kg/injection, schedule: Q01DX009 (ip), vehicle: saline, evaluated on day 30): 117 % of control
T/C (dose: 100.0 mg/kg/injection, schedule: Q01DX009 (ip), vehicle: saline, evaluated on day 20): 112 [5 of 6 alive], 116, 131 % of control
T/C (dose: 100.0 mg/kg/injection, schedule: Q01DX009 (ip), vehicle: saline, evaluated on day 30): 117 % of control
T/C [3]: 144 % of control
survivor count [3]: 5 of 6
survivor count [1]: 0 of 6 (2×)
survivor count (dose: 400.0 mg/kg/injection, schedule: Q04DX003 (ip), vehicle: saline): 5 of 6

Cc1cc(N(CCO)CCO)c2cc3ccc4cccc5ccc(c2n1)c3c45
survivor count [4]: 6 of 6
survivor count [5]: 1 of 6

CCCNCCC(O)c1cc(C(F)(F)F)nc2c(C(F)(F)F)cccc12 (configuration not stated)
T/C [6]: 129 % of control
survivor count [7]: 0 of 6

N=C(N)SC(c1ccccc1)c1ccccc1
survivor count (dose: 400.0 mg/kg/injection, schedule: Q01DX001 (ip), vehicle: Klucel (hydroxypropylcellulose) (HPC)): 0 of 6

COc1ccc(/C=C2\CCCC3=C2N=C2SCC(=O)N2C3c2ccc(OC)cc2)cc1 (configuration not stated)
survivor count [4]: 6 of 6

O=C(NS(=O)(=O)c1ccc(Cl)cc1)c1ccccc1
survivor count [6]: 5 of 6

S=C(S)N1CCN(C(=S)S)CC1
T/C (dose: 50.0 mg/kg/injection, schedule: Q01DX009 (ip), vehicle: saline): 131 % of control
T/C (dose: 75.0 mg/kg/injection, schedule: Q01DX009 (ip), vehicle: saline): 95, 100, 104, 105 % of control
survivor count (dose: 150.0 mg/kg/injection, schedule: Q01DX009 (ip), vehicle: saline): 6 of 6
survivor count (dose: 300.0 mg/kg/injection, schedule: Q01DX009 (ip), vehicle: saline): 0 of 6
survivor count [1]: 0 of 6

CCN1CCC(O)(c2ccc(Br)cc2)C1 (configuration not stated)
survivor count [3]: 3 of 6

Nc1c(Br)cc2c(c1Br)Cc1cc(Cl)ccc1-2
survivor count (dose: 25.0 mg/kg/injection, schedule: Q01DX009 (ip), vehicle: Klucel (hydroxypropylcellulose) (HPC)): 6 of 6
survivor count [8]: 5 of 6 and 6 of 6
survivor count (dose: 200.0 mg/kg/injection, schedule: Q01DX009 (ip), vehicle: Klucel (hydroxypropylcellulose) (HPC)): 5 of 6
survivor count (dose: 200.0 mg/kg/injection, schedule: Q04DX003 (ip), vehicle: Klucel (hydroxypropylcellulose) (HPC)): 6 of 6

CCN(CC)CCCNC(C)CCCN(CC)CC (configuration not stated)
survivor count (dose: 200.0 mg/kg/injection, schedule: Q01DX009 (ip), vehicle: water): 3 of 6
survivor count [9]: 0 of 6
survivor count (dose: 400.0 mg/kg/injection, schedule: Q04DX003 (ip), vehicle: water): 3 of 6

O=S(=O)(O)CCO
survivor count [10]: 6 of 6

Cc1ccc2c(c1)=N/C(=N\c1nc(O)c(O)[nH]1)N=2
T/C [8]: 127 % of control
survivor count (dose: 210.0 mg/kg/injection, schedule: Q01DX009 (ip), vehicle: Klucel (hydroxypropylcellulose) (HPC)): 0 of 6

COc1ccccc1NC(=O)c1ccc(Cl)cc1Cl
survivor count [8]: 6 of 6

NC(=O)NC1C(c2ccccc2)=NOC1C(N)=O (configuration not stated)
survivor count (dose: 400.0 mg/kg/injection, schedule: Q01DX009 (ip), vehicle: Klucel (hydroxypropylcellulose) (HPC)): 0 of 6

COC(=O)c1cc(-c2ccccc2)[nH]c1-c1ccccc1
survivor count [10]: 4 of 6
survivor count [3]: 6 of 6

O=C1c2c(O)ccc(O)c2C(=O)c2c(NCCNCCO)ccc(NCCNCCO)c21
survivor count (dose: 6.25 mg/kg/injection, schedule: Q01DX009 (ip), vehicle: water): 6 of 6
survivor count (dose: 12.5 mg/kg/injection, schedule: Q01DX009 (ip), vehicle: water): 3 of 6

O=C(O)CC1SC(=S)N(c2ccccc2)C1=O (configuration not stated)
survivor count [7]: 6 of 6

COc1cc2c(cc1OC)C(=O)N(C)CC2
survivor count [9]: 0 of 6

O=C1C(N2CC2)=C(N2CC2)C(=O)C(N2CC2)=C1N1CC1
T/C (dose: 0.04 mg/kg/injection, schedule: Q01DX009 (ip), vehicle: saline): 145 % of control
survivor count (dose: 0.08 mg/kg/injection, schedule: Q01DX009 (ip), vehicle: saline): 6 of 6
T/C (dose: 0.1 mg/kg/injection, schedule: Q04DX003 (ip), vehicle: saline with Tween-80): 133 % of control
T/C (dose: 0.13 mg/kg/injection, schedule: Q04DX003 (ip), vehicle: saline with Tween-80): 131 % of control
survivor count (dose: 0.16 mg/kg/injection, schedule: Q01DX009 (ip), vehicle: saline): 5 of 6 and 6 of 6
T/C (dose: 0.17 mg/kg/injection, schedule: Q04DX003 (ip), vehicle: other): 127 % of control
survivor count (dose: 0.38 mg/kg/injection, schedule: Q04DX003 (ip), vehicle: other): 6 of 6
survivor count (dose: 6.25 mg/kg/injection, schedule: Q04DX003 (ip), vehicle: saline with Tween-80): 0 of 6
survivor count (dose: 12.5 mg/kg/injection, schedule: Q04DX003 (ip), vehicle: saline with Tween-80): 0 of 6
survivor count (dose: 25.0 mg/kg/injection, schedule: Q04DX003 (ip), vehicle: saline with Tween-80): 0 of 6
survivor count (dose: 100.0 mg/kg/injection, schedule: Q04DX003 (ip), vehicle: saline with Tween-80): 0 of 6
survivor count [4]: 0 of 6
survivor count [5]: 0 of 6
T/C (dose: 4.4 micrograms/kg/injection, schedule: Q01DX009 (ip), vehicle: saline with Tween-80): 133 % of control
T/C (dose: 13.3 micrograms/kg/injection, schedule: Q01DX009 (ip), vehicle: saline with Tween-80): 141 % of control
T/C (dose: 15.0 micrograms/kg/injection, schedule: Q01DX009 (ip), vehicle: saline with Tween-80): 138 % of control
survivor count (dose: 250.0 micrograms/kg/injection, schedule: Q01DX009 (ip), vehicle: saline with Tween-80): 6 of 6

O=C(Nc1ccc(NC(=O)Nc2cccc(C3=NCCCN3)c2)cc1)Nc1ccc(C2=NCCCN2)cc1
survivor count (dose: 15.0 mg/kg/injection, schedule: Q01DX009 (ip), vehicle: saline with Tween-80): 5 of 6

ClCCN(CCCl)CCNc1ccnc2cc(Cl)ccc12
T/C (dose: 0.25 mg/kg/injection, schedule: Q01DX009 (ip), vehicle: saline): 125 and 136 % of control
T/C (dose: 0.5 mg/kg/injection, schedule: Q01DX009 (ip), vehicle: saline): 130 % of control
T/C (dose: 0.88 mg/kg/injection, schedule: Q01DX009 (ip), vehicle: saline): 141 % of control
T/C (dose: 1.32 mg/kg/injection, schedule: Q01DX009 (ip), vehicle: saline): 141 % of control
T/C (dose: 1.78 mg/kg/injection, schedule: Q04DX003 (ip), vehicle: saline): 127 % of control
T/C (dose: 2.66 mg/kg/injection, schedule: Q04DX003 (ip), vehicle: saline): 145 % of control
T/C (dose: 3.0 mg/kg/injection, schedule: Q01DX009 (ip), vehicle: saline): 145 % of control
survivor count (dose: 4.0 mg/kg/injection, schedule: Q04DX003 (ip), vehicle: saline): 5 of 6
survivor count (dose: 8.0 mg/kg/injection, schedule: Q04DX003 (ip), vehicle: saline): 0 of 6
survivor count [2]: 2 of 6

— PubChem BioAssay AID328 (DTP/NCI, 2004)
